# Assay results published in PMC9969397, “Rhenium(V) Complexes as Cysteine-Targeting Coordinate Covalent Warheads” (Journal of Medicinal Chemistry, 2023).
# Assay: Interactions with amino acids (HPLC): cysteine derivative
substance,measurement,setting,value
"ReO(2,2′-thiodiethanethiol)(water) Trifluoromethanesulfonate [Compound 3]",reactivity with tert-butoxycarbonyl-L-cysteine methyl ester,"equimolar, water, 37 °C, 24 h",full conversion
same,reactivity with tert-butoxycarbonyl-L-cysteine methyl ester,incubation 4 h,complete conversion
